Results are given in words; binding and its absence hold for the method and conditions named. For some assays here: In cells and extracts the contact can be indirect. Some binding calls cover weakened binding; strength is not graded here.
What was measured:
[1] = target: human placenta collagen type I (human) (UniProt P02452+P08123); assay: ELISA; solid-phase binding assay: ECM proteins (10 μg/mL) coated on Maxisorp wells in carbonate buffer (pH 9.6) overnight at 4°C, blocked with 1% BSA; increasing concentrations of rTMD1 in PBS with 0.1% BSA, overnight at 4°C; bound rTMD1 detected with an anti-His antibody; both purified
[2] = target: fibronectin on tumor blood vessels of mice (mouse (endogenous in B16F10 tumors grown in C57BL/6 mice)) (UniProt P11276); assay: proximity ligation; Duolink In Situ on acetone-fixed frozen sections of B16F10 tumors from C57BL/6 mice; rabbit anti-mouse TM lectin-like domain and goat anti-fibronectin (sc-6952) primary antibodies

The chains behind the UniProt entries cited, without tags or fusion partners. Where a name states a change or a piece, a line headed by the entry shows the natural chain unless it says otherwise. Residues count along the entry.
UniProt P02452: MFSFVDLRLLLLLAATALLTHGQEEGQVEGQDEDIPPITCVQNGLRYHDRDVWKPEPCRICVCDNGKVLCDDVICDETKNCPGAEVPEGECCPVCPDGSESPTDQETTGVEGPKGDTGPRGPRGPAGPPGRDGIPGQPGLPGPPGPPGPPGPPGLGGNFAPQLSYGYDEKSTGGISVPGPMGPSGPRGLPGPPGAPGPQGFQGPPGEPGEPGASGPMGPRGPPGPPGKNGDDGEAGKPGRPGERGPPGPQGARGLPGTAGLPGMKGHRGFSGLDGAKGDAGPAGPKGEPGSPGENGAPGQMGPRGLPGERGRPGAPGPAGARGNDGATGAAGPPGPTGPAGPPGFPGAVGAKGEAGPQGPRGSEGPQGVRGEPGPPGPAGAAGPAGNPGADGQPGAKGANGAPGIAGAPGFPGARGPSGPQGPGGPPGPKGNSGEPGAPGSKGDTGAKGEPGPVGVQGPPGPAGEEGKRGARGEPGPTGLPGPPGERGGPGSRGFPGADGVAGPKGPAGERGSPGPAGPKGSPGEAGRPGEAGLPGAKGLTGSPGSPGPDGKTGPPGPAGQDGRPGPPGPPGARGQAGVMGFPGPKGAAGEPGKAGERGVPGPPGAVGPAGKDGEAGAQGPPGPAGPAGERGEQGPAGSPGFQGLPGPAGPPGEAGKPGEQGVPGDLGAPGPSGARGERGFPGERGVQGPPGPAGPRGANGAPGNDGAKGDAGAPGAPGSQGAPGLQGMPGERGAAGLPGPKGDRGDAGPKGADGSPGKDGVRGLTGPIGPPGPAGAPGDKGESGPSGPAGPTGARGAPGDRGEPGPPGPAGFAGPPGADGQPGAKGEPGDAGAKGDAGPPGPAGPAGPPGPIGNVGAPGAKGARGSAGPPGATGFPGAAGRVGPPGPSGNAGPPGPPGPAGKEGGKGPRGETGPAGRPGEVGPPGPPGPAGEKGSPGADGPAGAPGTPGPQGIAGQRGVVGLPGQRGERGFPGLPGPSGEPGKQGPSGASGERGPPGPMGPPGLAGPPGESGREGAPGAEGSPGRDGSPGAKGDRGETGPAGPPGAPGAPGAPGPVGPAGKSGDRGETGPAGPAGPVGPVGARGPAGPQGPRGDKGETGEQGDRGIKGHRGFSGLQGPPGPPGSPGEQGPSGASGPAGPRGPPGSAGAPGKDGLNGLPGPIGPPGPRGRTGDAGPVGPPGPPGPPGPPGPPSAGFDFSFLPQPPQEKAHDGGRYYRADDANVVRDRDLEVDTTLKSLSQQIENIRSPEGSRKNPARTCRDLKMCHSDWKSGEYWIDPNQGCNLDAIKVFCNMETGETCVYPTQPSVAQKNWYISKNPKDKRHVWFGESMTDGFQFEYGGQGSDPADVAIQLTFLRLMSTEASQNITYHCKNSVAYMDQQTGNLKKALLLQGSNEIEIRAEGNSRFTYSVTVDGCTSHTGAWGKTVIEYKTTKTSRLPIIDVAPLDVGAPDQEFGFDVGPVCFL
UniProt P08123: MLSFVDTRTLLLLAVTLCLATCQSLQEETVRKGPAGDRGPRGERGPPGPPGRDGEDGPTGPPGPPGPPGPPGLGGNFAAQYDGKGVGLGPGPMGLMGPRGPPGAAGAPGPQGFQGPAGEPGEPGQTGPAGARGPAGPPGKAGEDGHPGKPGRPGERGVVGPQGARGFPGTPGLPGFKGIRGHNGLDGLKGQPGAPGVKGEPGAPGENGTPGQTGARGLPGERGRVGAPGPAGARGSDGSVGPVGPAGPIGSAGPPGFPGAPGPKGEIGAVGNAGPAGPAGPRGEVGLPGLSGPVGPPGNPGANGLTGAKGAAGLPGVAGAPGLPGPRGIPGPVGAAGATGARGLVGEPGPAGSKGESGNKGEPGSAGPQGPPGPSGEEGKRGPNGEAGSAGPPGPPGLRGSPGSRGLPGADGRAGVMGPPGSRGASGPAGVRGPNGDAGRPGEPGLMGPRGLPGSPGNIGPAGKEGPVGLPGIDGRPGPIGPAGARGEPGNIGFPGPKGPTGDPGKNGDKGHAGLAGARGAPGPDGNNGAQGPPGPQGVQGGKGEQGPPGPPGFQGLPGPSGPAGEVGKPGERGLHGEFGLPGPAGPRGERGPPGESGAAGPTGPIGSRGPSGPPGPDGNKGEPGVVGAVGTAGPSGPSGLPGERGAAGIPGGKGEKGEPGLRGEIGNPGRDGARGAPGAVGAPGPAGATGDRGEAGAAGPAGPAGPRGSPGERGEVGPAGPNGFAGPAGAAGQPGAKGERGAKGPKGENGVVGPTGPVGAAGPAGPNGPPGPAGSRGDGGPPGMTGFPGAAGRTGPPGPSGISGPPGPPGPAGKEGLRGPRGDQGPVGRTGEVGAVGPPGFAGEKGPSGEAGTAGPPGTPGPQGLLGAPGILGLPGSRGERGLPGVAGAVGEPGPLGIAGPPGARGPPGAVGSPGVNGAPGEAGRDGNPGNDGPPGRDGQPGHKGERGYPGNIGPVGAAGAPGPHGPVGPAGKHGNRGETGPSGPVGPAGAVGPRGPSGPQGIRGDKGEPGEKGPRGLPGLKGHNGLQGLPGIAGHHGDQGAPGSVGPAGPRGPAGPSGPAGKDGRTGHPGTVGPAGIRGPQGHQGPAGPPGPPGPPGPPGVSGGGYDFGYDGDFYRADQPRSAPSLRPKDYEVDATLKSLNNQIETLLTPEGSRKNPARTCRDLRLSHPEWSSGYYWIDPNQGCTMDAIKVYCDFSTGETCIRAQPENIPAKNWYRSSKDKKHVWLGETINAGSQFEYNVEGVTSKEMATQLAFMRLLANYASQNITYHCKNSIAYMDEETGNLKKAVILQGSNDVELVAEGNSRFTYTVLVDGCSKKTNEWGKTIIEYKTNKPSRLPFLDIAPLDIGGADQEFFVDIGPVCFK
UniProt P11276, residues 33-2477: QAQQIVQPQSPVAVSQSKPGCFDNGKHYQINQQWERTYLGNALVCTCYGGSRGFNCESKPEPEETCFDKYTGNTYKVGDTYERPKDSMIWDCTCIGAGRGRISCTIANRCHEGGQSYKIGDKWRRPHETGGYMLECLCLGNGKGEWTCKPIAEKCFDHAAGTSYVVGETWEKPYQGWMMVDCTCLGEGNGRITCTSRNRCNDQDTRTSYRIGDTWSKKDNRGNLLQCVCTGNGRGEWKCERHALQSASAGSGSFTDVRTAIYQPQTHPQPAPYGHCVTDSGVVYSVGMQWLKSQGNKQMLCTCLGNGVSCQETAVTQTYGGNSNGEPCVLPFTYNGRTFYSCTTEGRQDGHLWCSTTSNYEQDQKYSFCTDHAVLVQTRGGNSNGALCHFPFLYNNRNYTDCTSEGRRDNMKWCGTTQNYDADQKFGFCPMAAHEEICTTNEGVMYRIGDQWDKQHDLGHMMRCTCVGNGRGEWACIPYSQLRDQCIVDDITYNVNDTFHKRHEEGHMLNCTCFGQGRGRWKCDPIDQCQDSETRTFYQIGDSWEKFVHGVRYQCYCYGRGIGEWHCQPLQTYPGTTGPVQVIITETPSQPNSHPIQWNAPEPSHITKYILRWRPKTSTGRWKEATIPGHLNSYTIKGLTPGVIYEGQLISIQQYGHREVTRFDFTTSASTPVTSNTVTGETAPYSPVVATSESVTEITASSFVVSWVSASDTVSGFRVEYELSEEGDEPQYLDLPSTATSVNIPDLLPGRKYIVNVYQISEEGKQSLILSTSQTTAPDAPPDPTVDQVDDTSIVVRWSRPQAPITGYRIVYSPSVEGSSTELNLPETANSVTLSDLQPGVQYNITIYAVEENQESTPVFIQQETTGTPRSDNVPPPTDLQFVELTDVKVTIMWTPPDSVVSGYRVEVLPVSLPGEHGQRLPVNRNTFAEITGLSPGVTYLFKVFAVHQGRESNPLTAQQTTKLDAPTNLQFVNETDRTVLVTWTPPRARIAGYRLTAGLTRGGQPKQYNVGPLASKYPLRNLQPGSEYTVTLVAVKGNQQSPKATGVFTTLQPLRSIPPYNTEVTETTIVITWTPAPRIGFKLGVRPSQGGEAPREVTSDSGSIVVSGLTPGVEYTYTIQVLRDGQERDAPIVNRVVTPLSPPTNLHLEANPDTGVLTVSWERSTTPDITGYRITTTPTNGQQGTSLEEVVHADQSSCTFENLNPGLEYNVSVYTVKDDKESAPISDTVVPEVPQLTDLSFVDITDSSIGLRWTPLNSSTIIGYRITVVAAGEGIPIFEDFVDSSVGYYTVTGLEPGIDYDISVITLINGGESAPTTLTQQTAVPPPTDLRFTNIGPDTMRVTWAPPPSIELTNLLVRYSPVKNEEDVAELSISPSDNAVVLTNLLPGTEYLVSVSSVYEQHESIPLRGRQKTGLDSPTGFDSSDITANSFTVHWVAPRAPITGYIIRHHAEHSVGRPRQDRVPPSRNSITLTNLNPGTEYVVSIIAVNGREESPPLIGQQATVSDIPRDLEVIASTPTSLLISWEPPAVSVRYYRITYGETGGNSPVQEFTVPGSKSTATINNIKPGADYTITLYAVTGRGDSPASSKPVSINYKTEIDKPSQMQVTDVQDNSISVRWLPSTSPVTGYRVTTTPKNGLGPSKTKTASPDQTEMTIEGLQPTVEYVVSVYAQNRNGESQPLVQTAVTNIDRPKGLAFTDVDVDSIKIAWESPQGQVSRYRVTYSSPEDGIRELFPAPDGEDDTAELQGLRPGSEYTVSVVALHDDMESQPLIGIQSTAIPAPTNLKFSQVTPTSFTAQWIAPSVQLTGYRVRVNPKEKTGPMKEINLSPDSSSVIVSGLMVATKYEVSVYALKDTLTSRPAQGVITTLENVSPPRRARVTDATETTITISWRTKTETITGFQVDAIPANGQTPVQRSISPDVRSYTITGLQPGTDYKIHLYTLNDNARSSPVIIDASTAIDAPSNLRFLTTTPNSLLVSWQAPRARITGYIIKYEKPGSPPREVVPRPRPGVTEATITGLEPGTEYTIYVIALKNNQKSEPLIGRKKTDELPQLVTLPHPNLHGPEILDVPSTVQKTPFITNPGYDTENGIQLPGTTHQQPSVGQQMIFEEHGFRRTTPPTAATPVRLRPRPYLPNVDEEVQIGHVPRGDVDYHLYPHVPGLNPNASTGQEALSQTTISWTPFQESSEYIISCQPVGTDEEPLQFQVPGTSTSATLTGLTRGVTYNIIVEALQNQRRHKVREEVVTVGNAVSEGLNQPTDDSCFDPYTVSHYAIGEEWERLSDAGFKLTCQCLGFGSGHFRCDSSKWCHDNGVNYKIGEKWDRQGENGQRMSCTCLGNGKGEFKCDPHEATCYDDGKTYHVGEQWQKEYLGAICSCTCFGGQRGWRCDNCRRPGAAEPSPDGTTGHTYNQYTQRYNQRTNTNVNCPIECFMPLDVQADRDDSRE
UniProt P07204, residues 19-173: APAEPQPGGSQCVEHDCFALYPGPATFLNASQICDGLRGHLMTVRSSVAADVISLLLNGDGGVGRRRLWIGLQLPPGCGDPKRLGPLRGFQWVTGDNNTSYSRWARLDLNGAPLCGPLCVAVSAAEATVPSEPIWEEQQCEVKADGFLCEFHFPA
UniProt P15306, residues 17-577: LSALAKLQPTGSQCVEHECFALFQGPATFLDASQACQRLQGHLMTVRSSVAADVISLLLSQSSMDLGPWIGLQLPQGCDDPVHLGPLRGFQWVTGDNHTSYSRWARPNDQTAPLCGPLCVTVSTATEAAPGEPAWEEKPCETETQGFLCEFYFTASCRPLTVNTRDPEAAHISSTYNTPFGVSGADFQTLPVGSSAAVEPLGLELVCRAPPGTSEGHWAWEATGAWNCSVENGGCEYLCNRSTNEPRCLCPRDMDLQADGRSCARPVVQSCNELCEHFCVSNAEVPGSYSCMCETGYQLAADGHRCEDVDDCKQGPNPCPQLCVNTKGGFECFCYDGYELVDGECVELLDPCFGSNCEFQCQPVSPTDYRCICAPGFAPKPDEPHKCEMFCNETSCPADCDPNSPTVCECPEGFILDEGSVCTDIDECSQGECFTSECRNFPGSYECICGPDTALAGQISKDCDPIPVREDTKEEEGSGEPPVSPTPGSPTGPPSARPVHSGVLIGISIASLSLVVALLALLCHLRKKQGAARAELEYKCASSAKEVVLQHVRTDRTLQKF

Substance	binding [1]	binding [2]
recombinant TM lectin-like domain (rTMD1) (from UniProt P07204 19-173) (domain or fragment)	binds weakly	–
thrombomodulin (TM) on tumor blood vessels of mice (from UniProt P15306 17-577)	–	binds

— PMC5356543
